Source: PubChem BioAssay AID1508600 (Functional Genomics Laboratory (NCATS/FGL), 2020)
Among all 53,000 sequences or so, about 3,700 (7%) were called active.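 The calls were made as follows: active = gene knockdowns whose robust z-score for IL-1 alpha signal is at least 2 or at most -2, so actives lie on both sides; inactive = the rest.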 Some of the results follow.

test: Components of the Cytosolic LPS Sensing Pathway: Gene Identification via Genome-wide siRNA Screen; details: RAW264.7 macrophages, IL-1a HTRF, actives lie on both sides, screened at 100 nM (by protocol), cells primed 5 h with Pam3CSK4 first;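 also: robust z of the log signal after scaling to non-targeting control siRNA wells of the plate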
How it was run: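 Using IL-1a HTRF as read-out, the screen measured release from RAW264.7 cells after 48h siRNA knockdown (100 nM), 5 h Pam3CSK4 priming and 24 h cytosolic LipidA. Values were expressed relative to negative-control wells as robust z-scores.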

z-score, active:
GGAAAUUGUGAGAAGAACUTT against Slx4ip 2.33
GCUGGAAUACGUUGAUAUATT against Kcnab3 3.68
GCAGAGACUCCAAAGCUCATT against Chd4 -2
GGCUUGUUUUGCCCAGAUGTT against Olfr398 -2.94
GGAGACACUGAAUGUGACATT against Ttyh1 -2.03
GGGUCUCAAAGCAGUUUUUTT against Rhoj 3.99
GGAUGAAAGCAAAGACAAGTT against Zscan21 2.63
UGGACUUGCUUCUCACAUCTT against Olfr694 -2.22

z-score, inactive:
GCCAAGGACUCAGUGAAUGTT against Iqsec2 -1.19
GGAGCUAGAACUCAAUGAATT against Lingo1 0.65
GGUUUUGGAAAAAGUGGAUTT against Chp1 -0.867
CCCAUCUGUUUGAGUGUAUTT against Ms4a1 -0.305
GGUGAACCUCCAGAACAAUTT against Bcap31 1.58
CCUUUCAAUUGGCUCUGAATT against Sumo1 0.506
GGUAGCUGACAAAGAGUAATT against Sp5 0.682
GCCUACAGAGUGAUCAACATT against Fxyd5 -0.318
GGAGAAAGCACUCUAUCUCTT against Abcc10 -0.0656
GGAUUUAGCCAAAGAAAAGTT against Tbc1d8 -1.77
GGAUGGACCGCAUUGAAAATT against Rilpl1 -0.663
GGACUUUGAGAAUGUGGAUTT against Xylt1 0.367
GGUCUGACCAUGAUCAUAATT against Tmem251 -1.76
GGCAGAUUCCAGGCUUCACTT against Olfr513 0.231
GCCGGACUUCCCAUCUGUUTT against Srebf1 -0.784
CCGUCGUCCUAGAAAAACCTT against Nsun7 -1.18
GGAAAGUACACAAAUGAACTT against Chil4 -0.278
GCAUCCUGAGCAGUGAUAUTT against Taar7b -1.75
GGAUUGUAGUCGUUUCUUCTT against Rdh14 -0.357
GGACAUGAAUGCAUUUUUATT against Klhl8 0.39
GGUUCAGUUGAUGCUUUAUTT against Lrba 0.407
GGAGCUGAACUAUUGUCAUTT against Ccdc186 0.979
CGAAGUGAGGCAAAUCGAATT against Stx18 0.835
GGCGAGAUUAAAAAAUGGUTT against Zhx1 0.114
GCAAAUUACCACAUUGUCUTT against Adam12 0.606
GGCUUACCUGAGGAAUGCUTT against Dhrs7b 0.25
GGAUCAGGAGGCCAUCACATT against 4933421I07Rik -1.92
CGAAGUGAAGAUUUACAGCTT against Nol10 -0.106
CGGCAACAAAUUCUACUCUTT against Ambp -0.631
GGACAUAUAGCUGAUUUCUTT against Ctdsp2 1.97
GGUCACAGACCAAGCUUAUTT against Mmp15 -0.0289
GCCCUCGAGAAGCUCUCAUTT against Zfp202 -1.58
GGCAGCUCCUUCACAUUUUTT against Net1 0.437
GGACUUAUUGCUUCAGUCUTT against Resp18 0.894
GGAUAAGACCAUCAGAUUATT against Wdr31 1.18
GGAAAUAAACCCUUGAUAUTT against Rhof 0.305
GCUAGUUAAGAGGAGGCUGTT against Nob1 -0.252
GCCAGUGCAUGAAAGAUAUTT against Kansl1l -0.772
GGGUCACUACAUUUGACACTT against Sh3glb2 0.0474
GGUCAAUGUGUUUAUGUGATT against Nxt2 -0.775
GGAUACGACACCAAGAAUATT against Fam102a 0.0981
CGACAUCGACAGUCUAUAATT against Aoc1 -0.363
GGUCUUUGAUCUACGAAUGTT against Rhobtb2 0.825
GGAGUCGAGUGAUGGUUCATT against Rtl1 -1.09
CCAAAUAUUGCCUAGCUGCTT against Qtrt2 0.152
GGAUGCAUGGCUCAGUUAUTT against Olfr143 -0.0703
CCUUCAGAGUUUCAGACAATT against Fancd2os -0.185
GGGUUAAAAACAAAGGACGTT against Adcyap1 0.12
GCAGGAAUGCGGUAUAAACTT against Inpp5f 0.707
GCGAGUGACACAUCUUCUCTT against Klhl7 0.467
GCAGUUAUCGUGAAGUCUGTT against Tfap4 0.217
GCCUCUUUAGGCUCUCUUUTT against Hspb6 0.449
GGAGAAGAGUCAAGAGCUCTT against Vxn 0.103
GGUGAAGAGACUGGAGAACTT against Cavin2 -0.277
GCAAUGUACUGGUAUAAUUTT against Slc25a40 -0.486
GCUGCACAAGUGAUAUCCGTT against Trim26 0.397
GGUGUCUCUGAAUGAUGGCTT against 1810009J06Rik 0.499
CCCACGUAAGAAAAAUAGCTT against Ccdc14 -1.2
CCAACGUGCUGAAUUAUUATT against Irx3os -0.0713
CGUAGUCCUGUAUCCUCUATT against Aip 1.37
GGAACUGAAGCUCCUACAATT against Inka2 1.67
GCUAAAAUAUUAGGGAAGCTT against Timm29 0.429
GGAUGAGUUUGACAAGCUGTT against Rhou -0.735
GGUAUUGGGUUCCAUUAUATT against Mcmdc2 -0.197
GCUCAAGUAAUAGAAACUUTT against Fam98a -0.0485
GGUCAAUGAGUUAGCAAUATT against Olfr1143 0.36
GGGAUCUUUUACUCAUACUTT against Olfr862 -1.95
GGCAGAAAAGAGAUGUUCUTT against Mien1 0.893
GCAGAUAAGAGUUCAAAUCTT against Oxa1l -0.499
GGAGAAGGAUGAAGACGGATT against Map1lc3a 0.397
GGAGGAGUCCCAUAACUCATT against Cby2 1.05
GGCCCUAAUAGCAACAGGATT against Ubqln2 -1.31
GGACAAUGUGAGUUUCCUGTT against 5330439B14Rik -1.02
GUAUGAUCUUUAAACUCCATT against Ppp1r13l 0.113
GGGCUUCACUUCCUUAGGATT against Cog3 0.0276
CGUAAUUAAUCAACAGCCATT against St8sia2 0.189
GCGUUGAAACCACUUUGUATT against Tmprss11c 0.221
GGCGUAUCAUUUUAUCGACTT against Phlda3 0.000603
GGAACUCAUGUGAAGCUCCTT against Ssu72 -0.544
GGAGCAGAUGAGAUCCAAGTT against Cdc42se1 -0.256
GCAGAUAGAGAUGAAGCUGTT against Phactr3 0.648
GGCUUAGAGCUUCCUCUAATT against Adprhl1 0.386
GCAAAUCGAGGACAGAAUUTT against Trim66 -0.498
CGUGAAGAAAAACGGGUUUTT against Snrpn -0.355
GGAGGUUAUCAGAUAUGCATT against Edar 0.682
GCUUCAGGAUAUUGUAAAGTT against Olfr1459 -1.28
GGUCCUACAAAAAGAUGGATT against Mettl7b -0.536
GCUCAGAUGUAUGUAUUCATT against Olfr247 -0.846
GCUUGAAUGUUGAGUGGAGTT against Mup3 -1.51
GGGAAUCUUCCGUUUAAGUTT against Pcdhga10 1.25
CGAGAUCUCCGUCGAGUAATT against Brf2 0.548
GGUAUCCUGUAACUACUCUTT against D130020L05Rik -0.912
GGAUGAAGACGACUAUCCCTT against Lat 1
GGAUUGUGCUAACCUGCUGTT against 1600014C10Rik 0.208
CGACAUGAGCAACGUAGUCTT against Ccdc57 -0.628
CGCCACAGACAUUCAGUUATT against Sec23ip -0.93
GUUCUAGGCCUCCUGAAGCTT against Dohh -0.808
GGCAUCAUCGCCAUCUUCATT against Prrt1 -1.08
